{
  "sequences": {"note": "Amino acid sequences for entries named in this document (tags omitted).", "UniProt Q8IY92": "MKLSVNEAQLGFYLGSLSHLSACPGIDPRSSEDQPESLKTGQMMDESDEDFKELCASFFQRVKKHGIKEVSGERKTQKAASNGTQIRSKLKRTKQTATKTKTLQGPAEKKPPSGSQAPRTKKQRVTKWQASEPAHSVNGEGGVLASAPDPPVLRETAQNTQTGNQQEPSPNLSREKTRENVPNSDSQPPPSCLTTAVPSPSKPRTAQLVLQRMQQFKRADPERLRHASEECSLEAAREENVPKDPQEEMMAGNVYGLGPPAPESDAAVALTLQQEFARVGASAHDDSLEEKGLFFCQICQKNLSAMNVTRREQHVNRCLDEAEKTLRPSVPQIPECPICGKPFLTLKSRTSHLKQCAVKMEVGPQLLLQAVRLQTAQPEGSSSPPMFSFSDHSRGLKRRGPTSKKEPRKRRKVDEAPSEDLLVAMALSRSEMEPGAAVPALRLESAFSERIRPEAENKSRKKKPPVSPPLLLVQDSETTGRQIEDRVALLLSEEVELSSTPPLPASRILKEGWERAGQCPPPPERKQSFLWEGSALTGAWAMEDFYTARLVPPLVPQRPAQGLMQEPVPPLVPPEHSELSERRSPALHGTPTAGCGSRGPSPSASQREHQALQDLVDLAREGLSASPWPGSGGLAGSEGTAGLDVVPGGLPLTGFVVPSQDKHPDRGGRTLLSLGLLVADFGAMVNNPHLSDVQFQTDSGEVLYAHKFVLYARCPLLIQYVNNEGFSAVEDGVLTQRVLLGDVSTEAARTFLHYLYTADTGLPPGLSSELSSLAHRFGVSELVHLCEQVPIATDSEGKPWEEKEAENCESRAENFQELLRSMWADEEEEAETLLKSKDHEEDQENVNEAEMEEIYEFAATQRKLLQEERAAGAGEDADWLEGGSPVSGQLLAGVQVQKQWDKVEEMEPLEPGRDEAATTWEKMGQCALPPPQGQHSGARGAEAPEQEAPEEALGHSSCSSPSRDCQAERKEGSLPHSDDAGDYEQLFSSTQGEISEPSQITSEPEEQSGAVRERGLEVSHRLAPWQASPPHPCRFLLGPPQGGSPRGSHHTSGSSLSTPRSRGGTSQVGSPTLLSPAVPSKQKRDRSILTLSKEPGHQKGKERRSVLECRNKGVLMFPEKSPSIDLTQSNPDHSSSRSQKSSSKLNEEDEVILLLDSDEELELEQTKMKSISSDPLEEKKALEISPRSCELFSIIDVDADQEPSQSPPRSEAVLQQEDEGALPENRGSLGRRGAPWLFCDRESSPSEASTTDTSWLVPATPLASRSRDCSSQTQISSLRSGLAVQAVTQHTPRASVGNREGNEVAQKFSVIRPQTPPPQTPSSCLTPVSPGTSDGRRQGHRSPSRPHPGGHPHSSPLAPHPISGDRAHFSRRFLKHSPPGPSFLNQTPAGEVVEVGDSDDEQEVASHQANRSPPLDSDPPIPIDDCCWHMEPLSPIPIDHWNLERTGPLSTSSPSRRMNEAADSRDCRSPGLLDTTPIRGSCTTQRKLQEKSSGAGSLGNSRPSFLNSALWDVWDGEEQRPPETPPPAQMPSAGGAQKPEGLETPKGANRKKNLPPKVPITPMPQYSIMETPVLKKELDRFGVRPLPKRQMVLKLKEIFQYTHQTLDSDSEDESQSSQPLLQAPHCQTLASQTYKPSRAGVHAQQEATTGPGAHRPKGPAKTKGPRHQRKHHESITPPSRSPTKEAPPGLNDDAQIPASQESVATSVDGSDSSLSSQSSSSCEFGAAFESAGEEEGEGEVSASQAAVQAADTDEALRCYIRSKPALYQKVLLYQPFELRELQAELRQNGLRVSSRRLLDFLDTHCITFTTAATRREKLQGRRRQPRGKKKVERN"},
  "source": "paper PMC5344696",
  "key": {"_(FLAG)SLX4 (human) [1]": {"biological_target": "_(FLAG)SLX4 (human) (UniProt Q8IY92)", "experiment": "co-IP + co-sedimentation; _(FLAG)SLX4 precipitated on anti-FLAG M2 agarose from extracts of G2/M-phase cells, eluted with 3x FLAG peptide, then run on a 10%-45% sucrose gradient; fractions blotted"}, "_(FLAG)SLX4 (human) [2]": {"biological_target": "_(FLAG)SLX4 (human) (UniProt Q8IY92)", "experiment": "co-sedimentation; 10%-45% sucrose gradients of whole-cell extracts of Flp-In T-REx 293 cells expressing _(FLAG)SLX4, synchronized at G1/S (double thymidine) or G2/M (thymidine, then nocodazole); SG buffer 25 mM Tris-HCl pH 8.0, 150 mM NaCl, 4°C; fractions blotted"}, "_(STREP)SLX4 (human) [3]": {"biological_target": "_(STREP)SLX4 (human) (UniProt Q8IY92)", "experiment": "three-step affinity co-purification; SMX from Hi5 cells co-infected with SM and XPF-ERCC1 baculoviruses; anti-FLAG M2 agarose, HisTRAP HP, StrepTactin Macroprep; 500 mM NaCl; SDS-PAGE"}, "_(STREP)SLX4 (human) [4]": {"biological_target": "_(STREP)SLX4 (human) (UniProt Q8IY92)", "experiment": "tandem affinity co-purification; SM from Hi5 cells infected with one baculovirus; StrepTactin Superflow, anti-FLAG M2 agarose, HiTRAP SP HP; 500 mM NaCl in the affinity steps"}},
  "note": "Results are given in words; binding and its absence hold for the method and conditions named. For part of these data: In cells and extracts the contact can be indirect. Some entries that bind do so weakly or less than the wild type. For part of these data: Tags and fused reporters may be left off the sequences shown.",
  "data": [
    {"binder": "ERCC1 (protein, UniProt P07992 1-297) MDPGKDKEGVPQPSGPPARKKFVIPLDEDEVPPGVAKPLFRSTQSLPTVDTSAQAAPQTYAEYAISQPLEGAGATCPTGSEPLAGETPNQALKPGAKSNSIIVSPRQRGNPVLKFVRNVPWEFGDVIPDYVLGQSTCALFLSLRYHNLHPDYIHGRLQSLGKNFALRVLLVQVDVKDPQQALKELAKMCILADCTLILAWSPEEAGRYLETYKAYEQKPADLLMEKLEQDFVSRVTECLTTVKSVNKTDSQTLLTTFGSLEQLIAASREDLALCPGLGPQKARRLFDVLHEPFLKVP", "values": [
      {"measurement": "binding", "setting": "_(FLAG)SLX4 (human) [1]", "value": "binds"},
      {"measurement": "binding", "setting": "_(FLAG)SLX4 (human) [2]", "value": "binds"}
    ]},
    {"binder": "SLX1 (protein, UniProt Q9BQ83 1-275) MGPAGVAARPGRFFGVYLLYCLNPRYRGRVYVGFTVNTARRVQQHNGGRKKGGAWRTSGRGPWEMVLVVHGFPSSVAALRFEWAWQHPHASRRLAHVGPRLRGETAFAFHLRVLAHMLRAPPWARLPLTLRWVRPDLRQDLCLPPPPHVPLAFGPPPPQAPAPRRRAGPFDDAEPEPDQGDPGACCSLCAQTIQDEEGPLCCPHPGCLLRAHVICLAEEFLQEEPGQLLPLEGQCPCCEKSLLWGDLIWLCQMDTEKEVEDSELEEAHWTDLLET", "values": [
      {"measurement": "binding", "setting": "_(FLAG)SLX4 (human) [1]", "value": "binds"},
      {"measurement": "binding", "setting": "_(FLAG)SLX4 (human) [2]", "value": "binds"}
    ]},
    {"binder": "V5SLX1 (protein, UniProt Q9BQ83 1-275) MGPAGVAARPGRFFGVYLLYCLNPRYRGRVYVGFTVNTARRVQQHNGGRKKGGAWRTSGRGPWEMVLVVHGFPSSVAALRFEWAWQHPHASRRLAHVGPRLRGETAFAFHLRVLAHMLRAPPWARLPLTLRWVRPDLRQDLCLPPPPHVPLAFGPPPPQAPAPRRRAGPFDDAEPEPDQGDPGACCSLCAQTIQDEEGPLCCPHPGCLLRAHVICLAEEFLQEEPGQLLPLEGQCPCCEKSLLWGDLIWLCQMDTEKEVEDSELEEAHWTDLLET", "values": [
      {"measurement": "binding", "setting": "_(STREP)SLX4 (human) [3]", "value": "binds"},
      {"measurement": "binding", "setting": "_(STREP)SLX4 (human) [4]", "value": "binds"}
    ]},
    {"binder": "_(FLAG)EME1 (protein, UniProt Q96AY2 1-570) MALKKSSPSLDSGDSDSEELPTFAFLKKEPSSTKRRQPEREEKIVVVDISDCEASCPPAPELFSPPVPEIAETVTQTQPVRLLSSESEDEEEFIPLAQRLTCKFLTHKQLSPEDSSSPVKSVLDHQNNEGASCDWKKPFPKIPEVPLHDTPERSAADNKDLILDPCCQLPAYLSTCPGQSSSLAVTKTNSDILPPQKKTKPSQKVQGRGSHGCRQQRQARQKESTLRRQERKNAALVTRMKAQRPEECLKHIIVVLDPVLLQMEGGGQLLGALQTMECRCVIEAQAVPCSVTWRRRAGPSEDREDWVEEPTVLVLLRAEAFVSMIDNGKQGSLDSTMKGKETLQGFVTDITAKTAGKALSLVIVDQEKCFSAQNPPRRGKQGANKQTKKQQQRQPEASIGSMVSRVDAEEALVDLQLHTEAQAQIVQSWKELADFTCAFTKAVAEAPFKKLRDETTFSFCLESDWAGGVKVDLAGRGLALVWRRQIQQLNRVSLEMASAVVNAYPSPQLLVQAYQQCFSDKERQNLLADIQVRRGEGVTSTSRRIGPELSRRIYLQMTTLQPHLSLDSAD", "values": [
      {"measurement": "binding", "setting": "_(STREP)SLX4 (human) [3]", "value": "binds"},
      {"measurement": "binding", "setting": "_(STREP)SLX4 (human) [4]", "value": "binds"}
    ]},
    {"binder": "XPF (protein, UniProt Q92889 1-916) MESGQPARRIAMAPLLEYERQLVLELLDTDGLVVCARGLGADRLLYHFLQLHCHPACLVLVLNTQPAEEEYFINQLKIEGVEHLPRRVTNEITSNSRYEVYTQGGVIFATSRILVVDFLTDRIPSDLITGILVYRAHRIIESCQEAFILRLFRQKNKRGFIKAFTDNAVAFDTGFCHVERVMRNLFVRKLYLWPRFHVAVNSFLEQHKPEVVEIHVSMTPTMLAIQTAILDILNACLKELKCHNPSLEVEDLSLENAIGKPFDKTIRHYLDPLWHQLGAKTKSLVQDLKILRTLLQYLSQYDCVTFLNLLESLRATEKAFGQNSGWLFLDSSTSMFINARARVYHLPDAKMSKKEKISEKMEIKEGEETKKELVLESNPKWEALTEVLKEIEAENKESEALGGPGQVLICASDDRTCSQLRDYITLGAEAFLLRLYRKTFEKDSKAEEVWMKFRKEDSSKRIRKSHKRPKDPQNKERASTKERTLKKKKRKLTLTQMVGKPEELEEEGDVEEGYRREISSSPESCPEEIKHEEFDVNLSSDAAFGILKEPLTIIHPLLGCSDPYALTRVLHEVEPRYVVLYDAELTFVRQLEIYRASRPGKPLRVYFLIYGGSTEEQRYLTALRKEKEAFEKLIREKASMVVPEEREGRDETNLDLVRGTASADVSTDTRKAGGQEQNGTQQSIVVDMREFRSELPSLIHRRGIDIEPVTLEVGDYILTPEMCVERKSISDLIGSLNNGRLYSQCISMSRYYKRPVLLIEFDPSKPFSLTSRGALFQEISSNDISSKLTLLTLHFPRLRILWCPSPHATAELFEELKQSKPQPDAATALAITADSETLPESEKYNPGPQDFLLKMPGVNAKNCRSLMHHVKNIAELAALSQDELTSILGNAANAKQLYDFIHTSFAEVVSKGKGKK", "values": [
      {"measurement": "binding", "setting": "_(FLAG)SLX4 (human) [1]", "value": "binds"},
      {"measurement": "binding", "setting": "_(FLAG)SLX4 (human) [2]", "value": "binds"},
      {"measurement": "binding", "setting": "_(STREP)SLX4 (human) [3]", "value": "binds"}
    ]},
    {"binder": "_(His6)ERCC1 (protein, UniProt P07992 1-297) MDPGKDKEGVPQPSGPPARKKFVIPLDEDEVPPGVAKPLFRSTQSLPTVDTSAQAAPQTYAEYAISQPLEGAGATCPTGSEPLAGETPNQALKPGAKSNSIIVSPRQRGNPVLKFVRNVPWEFGDVIPDYVLGQSTCALFLSLRYHNLHPDYIHGRLQSLGKNFALRVLLVQVDVKDPQQALKELAKMCILADCTLILAWSPEEAGRYLETYKAYEQKPADLLMEKLEQDFVSRVTECLTTVKSVNKTDSQTLLTTFGSLEQLIAASREDLALCPGLGPQKARRLFDVLHEPFLKVP", "values": [
      {"measurement": "binding", "setting": "_(STREP)SLX4 (human) [3]", "value": "binds"}
    ]},
    {"binder": "EME1 (protein, UniProt Q96AY2 1-570) MALKKSSPSLDSGDSDSEELPTFAFLKKEPSSTKRRQPEREEKIVVVDISDCEASCPPAPELFSPPVPEIAETVTQTQPVRLLSSESEDEEEFIPLAQRLTCKFLTHKQLSPEDSSSPVKSVLDHQNNEGASCDWKKPFPKIPEVPLHDTPERSAADNKDLILDPCCQLPAYLSTCPGQSSSLAVTKTNSDILPPQKKTKPSQKVQGRGSHGCRQQRQARQKESTLRRQERKNAALVTRMKAQRPEECLKHIIVVLDPVLLQMEGGGQLLGALQTMECRCVIEAQAVPCSVTWRRRAGPSEDREDWVEEPTVLVLLRAEAFVSMIDNGKQGSLDSTMKGKETLQGFVTDITAKTAGKALSLVIVDQEKCFSAQNPPRRGKQGANKQTKKQQQRQPEASIGSMVSRVDAEEALVDLQLHTEAQAQIVQSWKELADFTCAFTKAVAEAPFKKLRDETTFSFCLESDWAGGVKVDLAGRGLALVWRRQIQQLNRVSLEMASAVVNAYPSPQLLVQAYQQCFSDKERQNLLADIQVRRGEGVTSTSRRIGPELSRRIYLQMTTLQPHLSLDSAD", "values": [
      {"measurement": "binding", "setting": "_(FLAG)SLX4 (human) [1]", "value": "binds"},
      {"measurement": "binding", "setting": "_(FLAG)SLX4 (human) [2]", "value": "binds"}
    ]},
    {"binder": "XPF^D705A (protein, UniProt Q92889 1-916) MESGQPARRIAMAPLLEYERQLVLELLDTDGLVVCARGLGADRLLYHFLQLHCHPACLVLVLNTQPAEEEYFINQLKIEGVEHLPRRVTNEITSNSRYEVYTQGGVIFATSRILVVDFLTDRIPSDLITGILVYRAHRIIESCQEAFILRLFRQKNKRGFIKAFTDNAVAFDTGFCHVERVMRNLFVRKLYLWPRFHVAVNSFLEQHKPEVVEIHVSMTPTMLAIQTAILDILNACLKELKCHNPSLEVEDLSLENAIGKPFDKTIRHYLDPLWHQLGAKTKSLVQDLKILRTLLQYLSQYDCVTFLNLLESLRATEKAFGQNSGWLFLDSSTSMFINARARVYHLPDAKMSKKEKISEKMEIKEGEETKKELVLESNPKWEALTEVLKEIEAENKESEALGGPGQVLICASDDRTCSQLRDYITLGAEAFLLRLYRKTFEKDSKAEEVWMKFRKEDSSKRIRKSHKRPKDPQNKERASTKERTLKKKKRKLTLTQMVGKPEELEEEGDVEEGYRREISSSPESCPEEIKHEEFDVNLSSDAAFGILKEPLTIIHPLLGCSDPYALTRVLHEVEPRYVVLYDAELTFVRQLEIYRASRPGKPLRVYFLIYGGSTEEQRYLTALRKEKEAFEKLIREKASMVVPEEREGRDETNLDLVRGTASADVSTDTRKAGGQEQNGTQQSIVVDMREFRSELPSLIHRRGIAIEPVTLEVGDYILTPEMCVERKSISDLIGSLNNGRLYSQCISMSRYYKRPVLLIEFDPSKPFSLTSRGALFQEISSNDISSKLTLLTLHFPRLRILWCPSPHATAELFEELKQSKPQPDAATALAITADSETLPESEKYNPGPQDFLLKMPGVNAKNCRSLMHHVKNIAELAALSQDELTSILGNAANAKQLYDFIHTSFAEVVSKGKGKK", "values": [
      {"measurement": "binding", "setting": "_(STREP)SLX4 (human) [3]", "value": "binds"}
    ]}
  ]
}
